In paper doi:10.1101/681833:
Results are given in words; binding and its absence hold for the method and conditions named. Binding seen in cells or lysates may run through a third protein. Here binding means that the protein was enriched with, or labelled near, the bait; the list need not be complete.

The chains behind the UniProt entries cited, without tags or fusion partners.
UniProt P35573: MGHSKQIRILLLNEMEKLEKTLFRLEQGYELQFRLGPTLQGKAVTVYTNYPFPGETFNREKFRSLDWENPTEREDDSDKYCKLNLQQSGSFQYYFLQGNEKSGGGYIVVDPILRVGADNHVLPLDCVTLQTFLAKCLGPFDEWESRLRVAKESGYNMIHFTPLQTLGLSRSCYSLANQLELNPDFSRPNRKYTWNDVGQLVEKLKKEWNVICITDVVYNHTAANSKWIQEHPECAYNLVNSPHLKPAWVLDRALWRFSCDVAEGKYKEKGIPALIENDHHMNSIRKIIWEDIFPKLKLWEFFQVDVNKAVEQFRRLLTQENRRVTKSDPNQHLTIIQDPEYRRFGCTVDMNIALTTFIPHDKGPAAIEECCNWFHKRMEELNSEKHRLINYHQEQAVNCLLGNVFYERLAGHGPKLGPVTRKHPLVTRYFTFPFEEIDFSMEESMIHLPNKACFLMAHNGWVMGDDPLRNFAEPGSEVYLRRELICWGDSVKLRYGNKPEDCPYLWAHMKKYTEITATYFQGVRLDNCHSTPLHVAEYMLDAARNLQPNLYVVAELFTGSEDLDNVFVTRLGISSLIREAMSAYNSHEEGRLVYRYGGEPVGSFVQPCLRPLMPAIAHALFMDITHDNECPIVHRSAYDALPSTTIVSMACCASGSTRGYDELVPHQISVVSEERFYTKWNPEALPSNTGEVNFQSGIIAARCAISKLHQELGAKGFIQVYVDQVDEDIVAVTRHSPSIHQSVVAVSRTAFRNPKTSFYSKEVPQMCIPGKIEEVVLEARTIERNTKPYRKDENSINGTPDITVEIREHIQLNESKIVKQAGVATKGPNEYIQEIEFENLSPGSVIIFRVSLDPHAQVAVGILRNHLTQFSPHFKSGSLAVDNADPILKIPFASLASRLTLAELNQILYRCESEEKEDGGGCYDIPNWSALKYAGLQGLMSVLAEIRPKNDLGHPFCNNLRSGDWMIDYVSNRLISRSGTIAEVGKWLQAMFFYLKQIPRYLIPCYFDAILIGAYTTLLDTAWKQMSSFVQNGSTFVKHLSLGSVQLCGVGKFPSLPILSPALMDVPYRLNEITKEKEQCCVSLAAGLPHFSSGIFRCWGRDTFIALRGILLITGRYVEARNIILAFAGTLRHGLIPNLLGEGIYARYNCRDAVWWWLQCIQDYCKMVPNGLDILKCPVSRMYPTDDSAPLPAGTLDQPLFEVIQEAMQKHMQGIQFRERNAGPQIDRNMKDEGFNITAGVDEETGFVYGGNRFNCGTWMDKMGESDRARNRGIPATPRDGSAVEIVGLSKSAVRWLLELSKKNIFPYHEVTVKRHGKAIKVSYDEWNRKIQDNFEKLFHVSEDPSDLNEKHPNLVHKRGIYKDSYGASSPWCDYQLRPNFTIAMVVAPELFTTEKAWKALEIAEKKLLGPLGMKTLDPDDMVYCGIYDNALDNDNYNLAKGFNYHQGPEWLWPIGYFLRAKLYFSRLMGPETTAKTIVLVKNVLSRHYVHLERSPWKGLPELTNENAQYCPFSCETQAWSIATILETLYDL

Target: T1, malin (purified recombinant) (UniProt Q6VVB1)
T1 sequence: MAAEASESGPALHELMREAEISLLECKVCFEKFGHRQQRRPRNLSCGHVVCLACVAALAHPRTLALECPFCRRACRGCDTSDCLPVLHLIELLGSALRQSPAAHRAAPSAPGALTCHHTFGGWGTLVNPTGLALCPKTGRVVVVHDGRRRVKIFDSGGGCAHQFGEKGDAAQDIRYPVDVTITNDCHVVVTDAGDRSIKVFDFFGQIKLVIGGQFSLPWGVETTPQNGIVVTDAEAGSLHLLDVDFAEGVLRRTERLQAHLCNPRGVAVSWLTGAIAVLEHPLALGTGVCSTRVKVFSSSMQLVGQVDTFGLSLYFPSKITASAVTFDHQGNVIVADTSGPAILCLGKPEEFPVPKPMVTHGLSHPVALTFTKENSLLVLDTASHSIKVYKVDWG
Experiment: affinity purification with mass spectrometry

glycogen debranching enzyme (from cell extract) (from UniProt P35573 1-1532)
binding: binds

B1: laforin (from cell extract) (enzyme, UniProt O95278 1-331)
chain: MRFRFGVVVPPAVAGARPELLVVGSRPELGRWEPRGAVRLRPAGTAAGDGALALQEPGLWLGEVELAAEEAAQDGAEPGRVDTFWYKFLKREPGGELSWEGNGPHHDRCCTYNENNLVDGVYCLPIGHWIEATGHTNEMKHTTDFYFNIAGHQAMHYSRILPNIWLGSCPRQVEHVTIKLKHELGITAVMNFQTEWDIVQNSSGCNRYPEPMTPDTMIKLYREEGLAYIWMPTPDMSTEGRVQMLPQAVCLLHALLEKGHIVYVHCNAGVGRSTAAVCGWLQYVMGWNLRKVQYFLMAKRPAVYIDEEALARAQEDFFQKFGKVRSSVCSL
binding: binds

B2: glycogen branching enzyme (from cell extract) (enzyme, UniProt Q04446 1-702)
chain: MAAPMTPAARPEDYEAALNAALADVPELARLLEIDPYLKPYAVDFQRRYKQFSQILKNIGENEGGIDKFSRGYESFGVHRCADGGLYCKEWAPGAEGVFLTGDFNGWNPFSYPYKKLDYGKWELYIPPKQNKSVLVPHGSKLKVVITSKSGEILYRISPWAKYVVREGDNVNYDWIHWDPEHSYEFKHSRPKKPRSLRIYESHVGISSHEGKVASYKHFTCNVLPRIKGLGYNCIQLMAIMEHAYYASFGYQITSFFAASSRYGTPEELQELVDTAHSMGIIVLLDVVHSHASKNSADGLNMFDGTDSCYFHSGPRGTHDLWDSRLFAYSSWEILRFLLSNIRWWLEEYRFDGFRFDGVTSMLYHHHGVGQGFSGDYSEYFGLQVDEDALTYLMLANHLVHTLCPDSITIAEDVSGMPALCSPISQGGGGFDYRLAMAIPDKWIQLLKEFKDEDWNMGDIVYTLTNRRYLEKCIAYAESHDQALVGDKSLAFWLMDAEMYTNMSVLTPFTPVIDRGIQLHKMIRLITHGLGGEGYLNFMGNEFGHPEWLDFPRKGNNESYHYARRQFHLTDDDLLRYKFLNNFDRDMNRLEERYGWLAAPQAYVSEKHEGNKIIAFERAGLLFIFNFHPSKSYTDYRVGTALPGKFKIVLDSDAAEYGGHQRLDHSTDFFSEAFEHNGRPYSLLVYIPSRVALILQNVDLPN
binding: binds
